Measurements as given in PubChem BioAssay AID587 (National Center for Advancing Translational Sciences (NCATS), 2007).
Hit rate of the full screen: of about 59,000 compounds, about 35 (0.06%) were called active. This list was built around the results that the source calls inconclusive (neither active nor inactive); the mix of calls is not that of the screen. Rule as the data show it: active = max dye-equivalent concentration above about 10 nM; inconclusive = between about 1.1 nM and that limit; inactive = weaker than that.

Experiment: qHTS Assay for Spectroscopic Profiling in Texas Red Spectral Region
Details: Compound fluorescence, Texas Red channel, 547/618 nm; hits give high values
Summary of the method: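 Compound fluorescence was read after 15 min at room temperature in 100 mM Tris, pH 8.0, using 547 nm excitation and 618 nm emission across a concentration series. It was expressed as Texas Red dye-equivalent concentration from an on-plate standard curve.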

Row | SMILES | max dye-equivalent concentration
1 | Cc1nnc(NC(=O)NC(C)N2C(=O)C3C4C=CC(C4)C3C2=O)s1 (stereo not given) | inconclusive: 1.1 nM
2 | CC(=O)N1CCN(C(=O)c2cccc(S(=O)(=O)Nc3ccc(C)cc3)c2)CC1 | inconclusive: 2.7 nM
3 | Cc1ccc(CNc2nc3ccccc3s2)s1 | inconclusive: 1.3 nM
4 | O=C(O)COc1cccc2nsnc12 | inconclusive: 1.6 nM
5 | O=C(c1cccnc1Nc1ccc2c(c1)CCC2)N1CCOCC1 | inconclusive: 1.6 nM
6 | Cc1cc(C)cc(NC(=O)CSc2nnc(-c3ccc(S(=O)(=O)N4CCCC4)cc3)o2)c1 | inconclusive: 2.8 nM
7 | CC(C)(C)c1cc2c(O)c(c1)Cc1cc(C(C)(C)C)cc(c1O)Cc1cc(C(C)(C)C)cc(c1O)Cc1cc(C(C)(C)C)cc(c1O)Cc1cc(C(C)(C)C)cc(c1O)Cc1cc(C(C)(C)C)cc(c1O)Cc1cc(C(C)(C)C)cc(c1O)Cc1cc(C(C)(C)C)cc(c1O)C2 | inactive
8 | COc1ccccc1CN(C)C(=O)C1COc2ccccc2O1 (stereo not given) | inconclusive: 2.1 nM
9 | CCOC(=O)c1sc(=S)n(-c2cc(F)ccc2F)c1N | inconclusive: 1.1 nM
10 | CCc1cc2c(SCC(=O)c3cccs3)ncnc2s1 | inconclusive: 1.2 nM
11 | C=CCn1c(Cc2ccc(OC)cc2)nnc1SCc1nc2ccccc2c(=O)[nH]1 | inconclusive: 2.2 nM
12 | COc1cccc(-c2ccc3ncnc(N4CCNCC4)c3c2)c1 | inactive
13 | COc1ccc(CSc2nnc(C)n2N)cc1Br | inconclusive: 1.1 nM
14 | CCCCS(=O)(=O)Nc1ccc(Cc2ccncc2)cc1 | inconclusive: 2.3 nM
15 | COc1ccc2c(c1)c1c(C)c3cnccc3c(C)c1n2CCCN | inactive
16 | CCOC(=O)c1c(C)oc2c(CN3CCN(C)CC3)c(Br)c(OC)c(O)c12 | inconclusive: 1.3 nM
17 | O=C(Nc1cccc2nsnc12)C1CC(=O)N(c2ccccc2)C1 (stereo not given) | inconclusive: 1.7 nM
18 | CCCCNc1c(C(=O)OCC)c(C)nc2c1cnn2CC | inconclusive: 1.6 nM
19 | CN(C)c1nc(N)nc(-c2nc3ccccc3s2)n1 | inconclusive: 1.6 nM
20 | CCCCn1c2c(c(=N)c3c1CCC3)CCC2 | inconclusive: 1.1 nM
21 | CC1(C)Cc2nc3sc4c(SCC(=O)NCc5ccco5)ncnc4c3cc2CO1 | inconclusive: 1.5 nM
22 | CC(=O)N1CCc2ccc(C(=O)CN3CCN(c4cccc(C)c4C)CC3)cc21 | inconclusive: 1.2 nM
23 | COc1ccc2c(c1)sc1nc(-c3ccccc3)cn12 | inconclusive: 1.9 nM
24 | Cc1noc(NS(=O)(=O)c2ccc(N3CC(O)=C(c4ccccc4)C3=N)cc2)c1C | inconclusive: 1.1 nM
25 | CC(C)n1c(SC2CCOC2=O)nc2ccccc21 (stereo not given) | inconclusive: 1.2 nM
26 | O=C(CCc1nc(-c2ccccc2)no1)Nc1cc(C(F)(F)F)ccc1Cl | inconclusive: 1.6 nM
27 | O=C(Nc1ccccc1N1CCCCC1)c1cccs1 | inconclusive: 1.1 nM
28 | Cn1cnnc1Sc1nc2c(c(=O)n(C)c(=O)n2C)n1Cc1ccccc1Cl | inconclusive: 1.5 nM

Three of the compounds above, in CSV form.
Row,SMILES,max dye-equivalent concentration
18,CCCCNc1c(C(=O)OCC)c(C)nc2c1cnn2CC,inconclusive: 1.6 nM
19,CN(C)c1nc(N)nc(-c2nc3ccccc3s2)n1,inconclusive: 1.6 nM
20,CCCCn1c2c(c(=N)c3c1CCC3)CCC2,inconclusive: 1.1 nM

The list goes on.

Row | SMILES | max dye-equivalent concentration
29 | CCCCC1(COC(=O)CCC(=O)O)C(=O)N(c2ccccc2)N(c2ccccc2)C1=O | inconclusive: 1.3 nM
30 | CC(=O)N1CCN(C(=O)COc2ccc(Br)cc2)CC1 | inconclusive: 2.1 nM
31 | Cc1ccc(N2CC(C(=O)Nc3ccccn3)CC2=O)cc1 (stereo not given) | inconclusive: 1.8 nM
32 | CN1C(=O)C2(NCCc3c2[nH]c2ccccc32)c2ccccc21 (stereo not given) | inconclusive: 1.1 nM
33 | O=C(NCCc1ccccc1)C1CCN(c2nc3ccccc3o2)CC1 | inconclusive: 1.1 nM
34 | Cc1ccc(N(C(C)C(=O)N2CCCCC2)S(C)(=O)=O)cc1C (stereo not given) | inconclusive: 1.5 nM
35 | Cc1ccc(-n2ncc3c(NCc4ccc5c(c4)OCO5)ncnc32)c(C)c1 | inconclusive: 1.1 nM
36 | COCCNC(=O)C(c1ccccc1)N(C(=O)Cn1nnc2ccccc21)c1cccnc1 (stereo not given) | inconclusive: 1.8 nM
37 | C=CCn1c(CNC(=O)CCC)nc2ccccc21 | inconclusive: 1.1 nM
38 | c1cnc(N2CCN(c3nc4ccccc4n4cnnc34)CC2)nc1 | inactive
39 | NC(=O)C1CCN(C(=O)CSCc2ccccc2Cl)CC1 | inconclusive: 1.5 nM
40 | Fc1cccc(NCc2cn3ccccc3n2)c1 | inconclusive: 1.3 nM
41 | CCOc1cc(C(=O)Nc2ccc3c(c2)OCO3)ccc1OC(F)F | inconclusive: 2 nM
42 | CC1(C)CC(=O)C=C(Nc2ccccn2)C1 | inconclusive: 1.8 nM
43 | CCn1c2ccccc2c2cc(NC(=O)CSc3nnc(-c4ccccc4OC)n3N)ccc21 | inconclusive: 1.1 nM
44 | COc1ccccc1OCC(=O)Nc1ccccn1 | inconclusive: 1.6 nM
45 | Cc1ccc2nc(NC3=NCN(Cc4cccnc4)CN3)nc(C)c2c1 | inconclusive: 1.6 nM
46 | COc1ccc(C(=O)N2CCC3(CC2)CN(C(=O)Nc2cccc(C#N)c2)C3)cc1 | inactive
47 | c1ccc2nc(C3=NCCN3)ccc2c1 | inconclusive: 1.1 nM
48 | COc1cc(-c2nnc(SCC(=O)N3CCCC3)o2)cc(OC)c1OC | inconclusive: 1.1 nM
49 | COc1cccc(CNC(=O)C2CCN(S(=O)(=O)c3ccc(F)cc3)CC2)c1 | inconclusive: 1.7 nM
50 | O=S(=O)(NCC1CCCO1)c1cccc(S(=O)(=O)N2CCCC2)c1 (stereo not given) | inconclusive: 1.2 nM
51 | Cc1cc(C)n(S(=O)(=O)c2cc(C)c(C)cc2C)n1 | inconclusive: 1.5 nM
52 | N#C/C(C(=O)NCc1ccccc1)=C1\SC(CCO)C(=O)N1c1ccccc1 (stereo not given) | inconclusive: 1.4 nM
53 | CCOC(=O)c1[nH]c2cc3c(cc2c1NC(=O)CN1CCCCC1C)OCO3 (stereo not given) | inconclusive: 1.1 nM
54 | O=C(Cn1nnc(-c2cccc(C(F)(F)F)c2)n1)N1CCOCC1 | inconclusive: 1.1 nM
55 | Cn1c(=O)c2c(nc(NCc3ccc4c(c3)OCO4)n2C)n(C)c1=O | inconclusive: 1.9 nM
